## Library screen at single concentrations

By UniProt entry, the sequences of proteins in these tests, tags left out. Residues count along the entry.
UniProt Q8IDJ8, 1-583: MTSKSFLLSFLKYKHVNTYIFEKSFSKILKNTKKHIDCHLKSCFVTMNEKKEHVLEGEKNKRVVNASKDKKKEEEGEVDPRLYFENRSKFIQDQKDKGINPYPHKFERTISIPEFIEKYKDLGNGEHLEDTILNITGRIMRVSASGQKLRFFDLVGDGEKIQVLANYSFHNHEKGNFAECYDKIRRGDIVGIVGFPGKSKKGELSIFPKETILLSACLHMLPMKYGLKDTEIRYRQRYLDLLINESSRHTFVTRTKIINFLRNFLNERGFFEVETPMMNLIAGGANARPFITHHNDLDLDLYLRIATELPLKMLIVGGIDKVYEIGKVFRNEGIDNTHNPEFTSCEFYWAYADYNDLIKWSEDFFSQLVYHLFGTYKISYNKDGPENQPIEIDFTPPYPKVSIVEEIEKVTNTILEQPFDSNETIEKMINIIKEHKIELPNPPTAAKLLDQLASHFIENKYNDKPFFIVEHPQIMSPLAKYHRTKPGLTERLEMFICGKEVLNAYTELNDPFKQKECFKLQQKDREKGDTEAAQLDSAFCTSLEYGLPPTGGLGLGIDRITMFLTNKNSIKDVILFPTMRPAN

T. brucei: 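Whole-parasite assay of Trypanosoma brucei over 72 hours; the read-out is not stated. Compounds at 30 µM. The record gives no direction; compounds that gave an IC50 in retests scored well above the rest, so higher reads as stronger inhibition. Values scatter widely below zero; nearly all retest evidence comes from the higher of the two concentrations used. Size under these conditions: about 64,000 compounds, about 940 of them at 50% or above in at least one test.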
PfKRS1: 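Enzyme assay of the cytosolic lysyl-tRNA synthetase in 384-well plates, read by luminescence. Target: Lysine-tRNA ligase, Plasmodium falciparum 3D7 (UniProt Q8IDJ8). Tested at 30 µM. Higher reads as stronger inhibition, judged from the few compounds that gave an IC50. About 69,000 compounds were tested under these conditions; 0.071% (about 49) showed 50% or more at least once.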

The filed quantity is “Percent Effect” (%).
The controls that fix the scale are not given in the record; negative values are as filed.
Compounds were drawn at random from those tested, without regard to their results.
A dash means the value is not listed here; it may have been measured.

With O=C(c1ccc2c(c1)COC2)N1CCC(Nc2ccccc2)CC1 the screen gave T. brucei: 15.22%; PfKRS1: 3.327%.
With CC(NC(=O)c1ccc(F)cc1F)c1cnn(C)c1 (stereo not shown) the screen gave T. brucei: -53.85%; PfKRS1: 6.73%.
With CC(C)C1CN(S(=O)(=O)c2ccc(C#N)cc2)CCS1 (stereo not shown) the screen gave T. brucei: 18.9%; PfKRS1: 4.63%.
With OC(c1ccccc1)C1CCN(Cc2csc(-c3ncccn3)n2)CC1 (stereo not shown) the screen gave PfKRS1: -0.05885%.
With O=C(c1ccc2[nH]ccc2c1)N1Cc2nc(CN3CCCCC3)oc2C1 the screen gave PfKRS1: 3.525%.
With CCCN1CCN(c2ccc(-c3nc(C)no3)cn2)CC1 the screen gave T. brucei: -19.82%; PfKRS1: 0.182%.
With O=C(c1ccoc1)N1CCC(O)(C(F)(F)F)CC1 the screen gave T. brucei: -5.321%; PfKRS1: -1.173%.
With CC(=O)c1cc2ncc(C(=O)NC3CCCC3)cc2[nH]1 the screen gave T. brucei: 6.173%; PfKRS1: 3.424%.
With COc1c(NS(=O)(=O)c2ccc(F)c(C)c2)c(C)nn1C the screen gave T. brucei: -2.967%; PfKRS1: 1.306%.
With CC(C)CC(C#N)NC(=O)CCNC(=O)C(C)(C)C (stereo not shown) the screen gave T. brucei: 4.218%; PfKRS1: 7.277%.
With CC(=O)N1CCC(NC(=O)c2cc(Cl)ccc2O)CC1 the screen gave T. brucei: -4.506%; PfKRS1: 1.902%.
With Nc1cc2c(nn1)CCN(C(=O)CCC1CCCCC1)C2 the screen gave PfKRS1: 0.4078%.
With O=C(COC[C@@H]1CC[C@H]2[C@H](CCN2Cc2ccco2)O1)N1CCCC1 the screen gave PfKRS1: -1.503%.
With CN(C)S(=O)(=O)CCCN1CCCC1c1noc(C2CC2)n1 (stereo not shown) the screen gave PfKRS1: -1.066%.
With Cc1cnn(CC2CCN(CC(O)Cn3cccn3)CC2)c1 (stereo not shown) the screen gave T. brucei: -47.04%; PfKRS1: -6.287%.
With CC(Cc1ccco1)NS(=O)(=O)N1CCCCC1 (stereo not shown) the screen gave T. brucei: -10.7%; PfKRS1: 11.63%.
With CN(C)C(=O)NCc1nnn2c1CN(CC1CCOCC1)CCC2 the screen gave PfKRS1: 1.182%.
With c1ccc(CCn2cc(-c3nc(CN4CCOCC4)no3)nn2)cc1 the screen gave T. brucei: 11.04%; PfKRS1: -1.186%.
With c1cnn(Cc2nnc3n2CCCN(Cc2ccsc2)C3)c1 the screen gave PfKRS1: 4.415%.
With CCC(=O)N1CCCC(C(=O)NCc2noc(Cc3ccccc3)n2)C1 (stereo not shown) the screen gave T. brucei: -10.08%; PfKRS1: 4.993%.
With C[C@H]1CN(c2ccccn2)C[C@@]12CCN(Cc1cccnc1)C2=O.O=C(O)C(F)(F)F.O=C(O)C(F)(F)F the screen gave T. brucei: -19.98%.
With CC(C)CN1CCc2[nH]nc(C(=O)N3CCCC3)c2C1 the screen gave PfKRS1: -3.197%.
With CCc1ccc(CN2C[C@@H](C(=O)O)[C@H](c3ccccc3OC)C2)o1 the screen gave T. brucei: -16.65%; PfKRS1: 4.261%.
With c1ccc(-c2nc3c(c(NCc4n[nH]c5c4CCC5)n2)CCNC3)cc1 the screen gave T. brucei: 50.77%; PfKRS1: 11.68%.
With O=C(c1cc2c([nH]c1=O)CCC2)N1CCCC1c1ccccc1 (stereo not shown) the screen gave T. brucei: 2.428%; PfKRS1: 6.897%.
With COCc1cn(CC2CCN(Cc3cc(C)[nH]n3)CC2)nn1 the screen gave T. brucei: -9.613%; PfKRS1: 2.934%.
With Cc1ccc(C(CCNCCCN(C)C)C2CCOC(C)(C)C2)cc1 (stereo not shown) the screen gave PfKRS1: -2.795%.
With Cc1ccc(C)n1C(C)C(=O)N1CCCN(Cc2cscn2)CC1 (stereo not shown) the screen gave PfKRS1: 1.094%.
With CCN1CCOC(CNCc2cccc(OCc3ccccn3)c2)C1 (stereo not shown) the screen gave T. brucei: 24.44%; PfKRS1: -0.143%.
With CN1CCC2(Cc3ccccc3NC2=O)C1 (stereo not shown) the screen gave T. brucei: -4.658%; PfKRS1: 2.327%.
With O=C(c1ccco1)N1Cc2nccn2CC(Cn2ncccc2=O)C1 (stereo not shown) the screen gave T. brucei: -10.36%; PfKRS1: 2.477%.
With Cc1cccc(C2CCCCCN2C(=O)c2cn(CC(N)=O)nn2)c1 (stereo not shown) the screen gave T. brucei: -27.45%; PfKRS1: 3.636%.
With c1ccc(CN2C[C@H]3CC[C@@H]2CN(Cc2nnc(C4CC4)o2)C3)cc1 the screen gave PfKRS1: 6.463%.
With CC(=O)N1[C@H](Cn2cncn2)C[C@@H]2CN(c3ncccn3)CC[C@@H]21 the screen gave PfKRS1: 1.083%.
With O=C(CCc1ccccc1)N1CCN(C(=O)c2ccc[nH]2)CC1 the screen gave T. brucei: -21.92%; PfKRS1: 0.9407%.
With Cc1ncsc1CN1CC[C@H]2OCC[C@@]2(C(=O)N2CCOCC2)C1 the screen gave PfKRS1: -1.076%.
With CCCc1nc(CN(CC)C(=O)c2onc3ccccc23)no1 the screen gave T. brucei: -27.8%; PfKRS1: -3.609%.
With CN(Cc1cncnc1)[C@H]1CN(C(=O)c2ccco2)[C@@H]2CCCO[C@@H]21 the screen gave PfKRS1: 1.896%.
With O=C(O)C(F)(F)F.O=C(O)C(F)(F)F.[H][C@@]12CCC(=O)N(Cc3cccc(C)n3)[C@]1([H])CCN2Cc1ccc(C)s1 the screen gave T. brucei: -8.93%.
With c1ccc2c(c1)CC(Cc1cc(N3CCCC3)cnn1)CCO2 (stereo not shown) the screen gave T. brucei: -7.035%; PfKRS1: 5.545%.
With Cc1cccc(S(=O)(=O)N2C[C@@H]3OCCN(C(C)C)[C@@H]3C2)c1 the screen gave PfKRS1: 1.93%.
With Cc1oc(NC(=O)C(C)N2CCN(CCO)CC2)c(C#N)c1C (stereo not shown) the screen gave T. brucei: -0.8633%; PfKRS1: -1.809%.
With Cc1cc(CN(CCCO)c2ccccc2)on1 the screen gave T. brucei: -25.67%; PfKRS1: -1.766%.
With Cc1ccc(-c2n[nH]cc2CNCC2CCc3nnc(C)n3C2)cc1 (stereo not shown) the screen gave T. brucei: -99.27%; PfKRS1: 6.763%.
With Cc1cccc(CN2CCc3onc(CO)c3C2)n1.O=C(O)C(F)(F)F the screen gave T. brucei: -52.13%.

3 of the entries, repeated:

compound	T. brucei	PfKRS1
C[C@H]1CN(c2ccccn2)C[C@@]12CCN(Cc1cccnc1)C2=O.O=C(O)C(F)(F)F.O=C(O)C(F)(F)F	-19.98%	-
Cc1cccc(CN2CCc3onc(CO)c3C2)n1.O=C(O)C(F)(F)F	-52.13%	-
CN(Cc1cncnc1)[C@H]1CN(C(=O)c2ccco2)[C@@H]2CCCO[C@@H]21	-	1.896%

From ChEMBL document CHEMBL3988442, “University of Dundee, Small-Polar-MMV Screening Library” (2021).